# Results as given in PubChem BioAssay AID720535 (National Center for Advancing Translational Sciences (NCATS), 2013).
# Shown are results outside the selection of hits, which stands elsewhere. Results filed as inconclusive are left out. Calls of active or inactive are those of the source. The call rests on the fitted dose curve; in most records, active means well fitted inhibition curve with a large enough effect; inconclusive means small, poorly fitted or top-dose-only effect; inactive means flat fitted curve, though single readings scatter.
# Assay: qHTS for Inhibitors of TGF-b: Cytotox Counterscreen for Cherry Picks; further: nearly all actives have a fitted effect of over 70% in size
# Details: HepG2 CAGA-GFP viability, ATP luminescence, 18 h, cells stimulated with TGF-beta, 500 pg/mL; at 46.1 µM (top of the series)
# Source text: TGF-b is a main component in the TGF-b signaling pathway which plays diverse roles in cellular and development pathways. TGF-b is mediated by transcription factors called "Smads". Although the Smad-dependent pathway is the primary canonical TGF-b signaling mode, TGF-b1 can also activate alternative signaling pathways, including those involving MAPK (ERK, JNK and p38). This interaction may mediate or enhance Smad-dependent responses, or can exert Smad-independent effects. The complexity of this signaling cascade allows the TGF-b superfamily to perform unique, overlapping or redundant functions. […] We aim to identify Smad3-small molecule antagonists using a quantitative high throughput screening (qHTS) approach. […]
# Suspensions of trypsinized HEPG2 CAGA-GFP cells were dispensed into white, tissue culture-treated, solid 1536-well plates at 5uL/well (1000 cells/well final concentration) in DMEM medium supplemented with 1% FBS. […] Two uL of CellTiter Glo (Promega), a luminescence-based viability reagent, was dispensed, followed by a 10 minute room temperature incubation. The plates were then measured on a PerkinElmer ViewLux plate reader for luminescence (clear filter) using a 5 second exposure. The %Activity was determined from the corrected luminescence values. […] Concentration-response curves were fitted to the signals arising from the resulting luminescence. […]
row,SMILES,"activity, negative = cytotoxicity"
1,COc1cc2c(c(OC)c1OC)-c1ccc(OC)c(=O)cc1C(N)CC2 (stereo unspecified),inactive: 3.37%
